Source: PMC4255804
No constants are given. Whether binding was seen depends on the method and setting. In cells and extracts the contact can be indirect. Some binding calls cover weakened binding; strength is not graded here.

The chains behind the UniProt entries cited, without tags or fusion partners.
UniProt Q61056: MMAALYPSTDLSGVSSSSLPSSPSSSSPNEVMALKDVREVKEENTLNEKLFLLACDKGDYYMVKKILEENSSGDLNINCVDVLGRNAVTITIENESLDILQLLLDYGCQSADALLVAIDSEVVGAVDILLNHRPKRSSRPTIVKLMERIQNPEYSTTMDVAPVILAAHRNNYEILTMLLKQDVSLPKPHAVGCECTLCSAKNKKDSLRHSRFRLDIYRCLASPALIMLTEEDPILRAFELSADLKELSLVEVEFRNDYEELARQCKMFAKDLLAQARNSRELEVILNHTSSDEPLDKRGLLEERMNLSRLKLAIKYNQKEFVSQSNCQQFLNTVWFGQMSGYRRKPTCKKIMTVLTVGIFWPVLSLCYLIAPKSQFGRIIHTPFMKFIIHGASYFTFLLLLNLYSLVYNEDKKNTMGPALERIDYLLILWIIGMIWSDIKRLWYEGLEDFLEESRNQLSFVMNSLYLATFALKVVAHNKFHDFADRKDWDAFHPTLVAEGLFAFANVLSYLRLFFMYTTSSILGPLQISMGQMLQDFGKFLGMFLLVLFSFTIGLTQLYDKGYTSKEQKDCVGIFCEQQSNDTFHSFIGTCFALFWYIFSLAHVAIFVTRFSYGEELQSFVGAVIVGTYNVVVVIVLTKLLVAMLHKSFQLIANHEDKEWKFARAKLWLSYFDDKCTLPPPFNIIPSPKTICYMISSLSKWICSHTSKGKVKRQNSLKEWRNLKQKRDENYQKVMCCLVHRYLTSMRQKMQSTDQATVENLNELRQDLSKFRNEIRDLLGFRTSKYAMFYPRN
UniProt Q9QX01: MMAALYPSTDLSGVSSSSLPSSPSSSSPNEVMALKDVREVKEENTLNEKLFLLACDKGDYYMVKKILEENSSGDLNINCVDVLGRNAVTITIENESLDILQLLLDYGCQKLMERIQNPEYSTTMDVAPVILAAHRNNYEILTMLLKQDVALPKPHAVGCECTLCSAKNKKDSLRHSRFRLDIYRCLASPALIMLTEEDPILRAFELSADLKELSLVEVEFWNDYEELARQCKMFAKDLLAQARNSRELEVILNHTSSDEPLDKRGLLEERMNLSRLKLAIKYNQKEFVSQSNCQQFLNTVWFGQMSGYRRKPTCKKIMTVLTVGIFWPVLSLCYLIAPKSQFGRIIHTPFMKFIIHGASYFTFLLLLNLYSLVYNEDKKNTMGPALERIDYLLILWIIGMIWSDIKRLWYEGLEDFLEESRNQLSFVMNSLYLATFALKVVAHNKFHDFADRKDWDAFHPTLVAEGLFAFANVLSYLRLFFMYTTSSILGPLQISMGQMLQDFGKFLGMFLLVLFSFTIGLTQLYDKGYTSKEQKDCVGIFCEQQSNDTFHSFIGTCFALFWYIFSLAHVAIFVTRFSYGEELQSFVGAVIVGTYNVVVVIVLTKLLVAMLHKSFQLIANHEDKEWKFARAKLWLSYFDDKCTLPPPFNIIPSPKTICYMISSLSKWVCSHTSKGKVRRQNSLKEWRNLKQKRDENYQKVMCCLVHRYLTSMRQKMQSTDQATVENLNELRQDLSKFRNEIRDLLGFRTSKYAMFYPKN

Columns and labels:
[1] = target: Human Caveolin-1 (Cav1) stably overexpressed in IEC-6 cells (IEC-Cav1) (human) (UniProt Q03135); experiment: co-IP; whole-cell lysates in RIPA buffer (500 ug) of IEC-6, IEC-Cdx2L1, IEC-TRPC1 (also after siCav1 or C-siRNA), IEC-Cav1 and Null cells; IP with anti-Cav1 or anti-TRPC1 antibody (4 ug), protein A/G-PLUS-Agarose, 4 C; western blot for TRPC1 or Cav1
[2] = target: T1, Caveolin-1 (Cav1), endogenous in rat intestinal epithelial cells (rat (endogenous in IEC-6)) (UniProt P41350); experiment: as above
T1 sequence: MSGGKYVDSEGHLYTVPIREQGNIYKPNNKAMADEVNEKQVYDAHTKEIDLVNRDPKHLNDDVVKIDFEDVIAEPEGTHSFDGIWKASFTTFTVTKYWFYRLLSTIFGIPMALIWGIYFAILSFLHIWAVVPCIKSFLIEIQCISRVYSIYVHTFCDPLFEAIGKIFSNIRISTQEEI

[3] = target: Canonical transient receptor potential-1 (TRPC1), mouse gastric mucosa (mouse (endogenous in gastric mucosa)) (UniProt Q61056); experiment: co-IP; gastric mucosal protein extracts (500 ug) of control littermate mice 0, 3, 6 and 16 h after intragastric 3.4 mol/L NaCl; IP with anti-TRPC1 antibody (4 ug), protein A/G-PLUS-Agarose, 4 C; western blot for Cav1 and TRPC1
[4] = target: Canonical transient receptor potential-1 (TRPC1), endogenous in rat intestinal epithelial cells (rat (endogenous in IEC-6)) (UniProt Q9QX01); experiment: co-IP; whole-cell lysates in RIPA buffer (500 ug) of IEC-6, IEC-Cdx2L1, IEC-TRPC1 (also after siCav1 or C-siRNA), IEC-Cav1 and Null cells; IP with anti-Cav1 or anti-TRPC1 antibody (4 ug), protein A/G-PLUS-Agarose, 4 C; western blot for TRPC1 or Cav1

Canonical transient receptor potential-1 (TRPC1), endogenous in rat intestinal epithelial cells (from UniProt Q9QX01 1-759)
binding [1]: binds
binding [2]: binds

B1: Caveolin-1 (Cav1), mouse gastric mucosa (protein, UniProt P49817 1-178)
chain: MSGGKYVDSEGHLYTVPIREQGNIYKPNNKAMADEVTEKQVYDAHTKEIDLVNRDPKHLNDDVVKIDFEDVIAEPEGTHSFDGIWKASFTTFTVTKYWFYRLLSTIFGIPMALIWGIYFAILSFLHIWAVVPCIKSFLIEIQCISRVYSIYVHTFCDPLFEAIGKIFSNIRISTQKEI
binding [3]: binds

B2: Caveolin-1 (Cav1), endogenous in rat intestinal epithelial cells (protein, UniProt P41350 1-178)
chain: MSGGKYVDSEGHLYTVPIREQGNIYKPNNKAMADEVNEKQVYDAHTKEIDLVNRDPKHLNDDVVKIDFEDVIAEPEGTHSFDGIWKASFTTFTVTKYWFYRLLSTIFGIPMALIWGIYFAILSFLHIWAVVPCIKSFLIEIQCISRVYSIYVHTFCDPLFEAIGKIFSNIRISTQEEI
binding [4]: binds
